Reference: article PMC1435744
Positions count from the first letter of the chain named. Names may count otherwise. No constants are given. Whether binding was seen depends on the method and setting. For some assays here: In cells and extracts the contact can be indirect. Some results given as binding are weak or reduced against the parent protein; the word gives no strength. Sequences can lack the tags named with a protein.

B1: mr-s ΔSAM (amino acids 1 to 400), HA-tagged or Flag-tagged, expressed in HEK293T cells (domain or fragment, UniProt Q1RNF8 1-400)
chain: MPEHPRHCDFQRGNVEIGLGPGGDLLGKRLSCPCITSHCSSEKKARSKDPQATSLLPELESTMAPEDHYHQLMSALSEASSFEETQRLYHLGIPSHDLLRVRQEVATATLRGPSGLEVHLPSSTADHRRKQGLVQRREGAVPAAATSFSEREMSQPPPLLSPQNAAHITMSSHLRPPFLGMPTAVCQTPGFSFLPSAQAEMLARQQELLRKQSLARLEMSELLRQKELGSVHRPLLPAPEVALHIPEGPDELQRRGSMLVLKHSSAPLLALPPQGPPGPGPPIPPKESARSRSEKGSLGVQPSQPKETTGAGLWAQEVSEEPSKDSDGEDPETAAAREGTSTPSQVPAGGTRAEGRGLLSGSTLPPPLPLGFPCGAVSPYFHTGTMGGLFTDEETTTLED
B2: Flag-tagged full-length mr-s G453A (protein, UniProt Q1RNF8 1-542)
chain: MPEHPRHCDFQRGNVEIGLGPGGDLLGKRLSCPCITSHCSSEKKARSKDPQATSLLPELESTMAPEDHYHQLMSALSEASSFEETQRLYHLGIPSHDLLRVRQEVATATLRGPSGLEVHLPSSTADHRRKQGLVQRREGAVPAAATSFSEREMSQPPPLLSPQNAAHITMSSHLRPPFLGMPTAVCQTPGFSFLPSAQAEMLARQQELLRKQSLARLEMSELLRQKELGSVHRPLLPAPEVALHIPEGPDELQRRGSMLVLKHSSAPLLALPPQGPPGPGPPIPPKESARSRSEKGSLGVQPSQPKETTGAGLWAQEVSEEPSKDSDGEDPETAAAREGTSTPSQVPAGGTRAEGRGLLSGSTLPPPLPLGFPCGAVSPYFHTGTMGGLFTDEETTTLEDVNKWTVDDVCNFVGGLSGCGEYARVFGEQGIDGETLPLLTEEHLLNTMGLKLAPALKIRAQVAKRLGRVFYMASFPVALPLQPPSLQAPELSPGHQPLSPATTTSPYEGTHLPTGQASPKQENGSGTIALLSGAPDPSQLLQ
B3: full-length mr-s, HA-tagged or Flag-tagged, expressed in HEK293T cells (protein, UniProt Q1RNF8 1-542)
chain: B2 chain with A453G
B4: mr-s (major retinal SAM domain protein), full-length, yeast two-hybrid fusion (protein, UniProt Q1RNF8 1-542)
chain: B2 chain with A453G
B5: N-terminal portion of mr-s (amino acids 1 to 400), yeast two-hybrid fusion (domain or fragment, UniProt Q1RNF8 1-400)
chain: B1 chain
B6: C-terminal portion of mr-s (amino acids 391 to 542), yeast two-hybrid fusion (domain or fragment, UniProt Q1RNF8 391-542)
chain: TDEETTTLEDVNKWTVDDVCNFVGGLSGCGEYARVFGEQGIDGETLPLLTEEHLLNTMGLKLGPALKIRAQVAKRLGRVFYMASFPVALPLQPPSLQAPELSPGHQPLSPATTTSPYEGTHLPTGQASPKQENGSGTIALLSGAPDPSQLLQ

Key:
[1] = target: T1, full-length mr-s, HA-tagged or Flag-tagged, expressed in HEK293T cells (mouse) (UniProt Q1RNF8); experiment: co-IP; HEK293T co-transfected with HA- and Flag-tagged constructs; 1 mg lysate precipitated with anti-Flag antibody and protein G-Sepharose, 4°C, 2 hrs, 150 mM NaCl, 1% Nonidet P-40; detected by anti-HA blot
T1 sequence: B2 chain with A453G

[2] = target: T2, mr-s ΔSAM (amino acids 1 to 400), HA-tagged or Flag-tagged, expressed in HEK293T cells (mouse) (UniProt Q1RNF8); experiment: as above
T2 sequence: B1 chain

[3] = target: T1, full-length mr-s, HA-tagged or Flag-tagged, expressed in HEK293T cells (mouse); experiment: co-IP; HEK293T co-transfected with full-HA and Flag-tagged full-length wild type or mutants; precipitated with anti-HA antibody, detected by anti-Flag antibody
[4] = target: T3, mr-s (major retinal SAM domain protein), full-length, yeast two-hybrid fusion (mouse) (UniProt Q1RNF8); experiment: two-hybrid; GAL4 assay: full-length, N (1-400) and C (391-542) of mr-s in pGBKT7 and pGADT7; lacZ scored by blue colour on X-gal plates (++ after 12 hr, + after 24 hr at 37°C)
T3 sequence: B2 chain with A453G

[5] = target: N-terminal portion of mr-s (amino acids 1 to 400), yeast two-hybrid fusion (mouse) (UniProt Q1RNF8); experiment: as above
[6] = target: C-terminal portion of mr-s (amino acids 391 to 542), yeast two-hybrid fusion (mouse) (UniProt Q1RNF8); experiment: as above

binding [1]	binding [2]	binding [3]	binding [4]	other results	Binder
binds	binds	–	–	–	B1
–	–	binds	–	–	B2
binds	binds weakly	binds	–	–	B3
–	–	–	binds	–	B4
–	–	–	binds weakly	binding [5]: binds weakly	B5
–	–	–	binds	binding [6]: binds	B6
